Results reported in the supplement of paper PMC12067093, “Discovery and optimisation of a covalent ligand for TRIM25 and its application to targeted protein ubiquitination” (Chemical Science, 2025).
The list shows a part of the results.

Amino acid sequences for entries named in this document (tags omitted). A change or cut given only in a name is not applied to a line headed by its entry.
UniProt P49585: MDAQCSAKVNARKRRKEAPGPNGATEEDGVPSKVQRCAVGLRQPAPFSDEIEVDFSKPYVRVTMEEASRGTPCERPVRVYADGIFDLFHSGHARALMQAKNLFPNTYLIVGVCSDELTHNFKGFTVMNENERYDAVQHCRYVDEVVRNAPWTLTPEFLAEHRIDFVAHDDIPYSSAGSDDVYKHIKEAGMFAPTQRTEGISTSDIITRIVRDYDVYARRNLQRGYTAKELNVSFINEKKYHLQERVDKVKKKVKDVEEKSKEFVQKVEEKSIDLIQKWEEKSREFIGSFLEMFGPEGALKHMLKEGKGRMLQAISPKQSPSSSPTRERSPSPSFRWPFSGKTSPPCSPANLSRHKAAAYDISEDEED
UniProt Q6P996: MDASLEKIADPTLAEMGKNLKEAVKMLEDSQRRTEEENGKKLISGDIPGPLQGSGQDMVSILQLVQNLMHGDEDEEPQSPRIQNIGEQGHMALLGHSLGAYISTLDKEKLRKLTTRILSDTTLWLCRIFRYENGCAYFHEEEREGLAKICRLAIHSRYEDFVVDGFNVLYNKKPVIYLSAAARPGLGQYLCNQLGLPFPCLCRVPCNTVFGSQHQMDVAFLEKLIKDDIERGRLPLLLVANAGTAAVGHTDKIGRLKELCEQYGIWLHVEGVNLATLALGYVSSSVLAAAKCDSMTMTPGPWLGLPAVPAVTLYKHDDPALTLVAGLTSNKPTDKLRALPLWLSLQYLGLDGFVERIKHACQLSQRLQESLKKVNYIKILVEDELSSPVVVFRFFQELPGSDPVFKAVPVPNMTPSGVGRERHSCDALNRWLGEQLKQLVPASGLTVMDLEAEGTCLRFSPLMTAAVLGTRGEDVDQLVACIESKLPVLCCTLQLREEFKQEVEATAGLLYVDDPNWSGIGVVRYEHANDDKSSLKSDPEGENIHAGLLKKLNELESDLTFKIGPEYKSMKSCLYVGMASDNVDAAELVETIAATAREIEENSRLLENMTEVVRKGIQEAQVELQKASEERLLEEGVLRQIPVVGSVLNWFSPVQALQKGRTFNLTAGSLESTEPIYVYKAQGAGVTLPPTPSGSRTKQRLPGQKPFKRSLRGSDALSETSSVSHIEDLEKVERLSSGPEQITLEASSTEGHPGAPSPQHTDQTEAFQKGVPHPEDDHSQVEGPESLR
UniProt Q8NCN5: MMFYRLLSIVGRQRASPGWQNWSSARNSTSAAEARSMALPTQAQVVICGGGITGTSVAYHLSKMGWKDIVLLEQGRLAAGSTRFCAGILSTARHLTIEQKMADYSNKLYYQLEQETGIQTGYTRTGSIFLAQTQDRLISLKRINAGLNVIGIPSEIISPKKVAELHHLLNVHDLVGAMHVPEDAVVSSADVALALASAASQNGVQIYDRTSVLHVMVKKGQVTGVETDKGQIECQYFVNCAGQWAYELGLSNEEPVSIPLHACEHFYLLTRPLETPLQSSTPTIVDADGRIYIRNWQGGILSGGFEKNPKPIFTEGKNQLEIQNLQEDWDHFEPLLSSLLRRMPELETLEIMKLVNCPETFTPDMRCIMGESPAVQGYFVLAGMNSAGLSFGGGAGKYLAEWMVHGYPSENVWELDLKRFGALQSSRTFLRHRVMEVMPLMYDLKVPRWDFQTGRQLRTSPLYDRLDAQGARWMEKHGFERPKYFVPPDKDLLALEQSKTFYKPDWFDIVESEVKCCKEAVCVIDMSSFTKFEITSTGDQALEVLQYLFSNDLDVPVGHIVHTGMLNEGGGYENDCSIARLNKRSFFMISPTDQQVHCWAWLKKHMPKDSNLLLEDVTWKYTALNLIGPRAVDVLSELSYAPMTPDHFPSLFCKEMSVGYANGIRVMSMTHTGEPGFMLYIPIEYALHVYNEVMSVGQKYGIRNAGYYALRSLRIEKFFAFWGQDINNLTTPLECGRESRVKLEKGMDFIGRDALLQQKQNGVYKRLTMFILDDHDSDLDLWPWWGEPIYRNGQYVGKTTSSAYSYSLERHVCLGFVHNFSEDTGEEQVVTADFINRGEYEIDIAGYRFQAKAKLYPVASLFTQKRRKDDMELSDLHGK
UniProt Q9NTI5: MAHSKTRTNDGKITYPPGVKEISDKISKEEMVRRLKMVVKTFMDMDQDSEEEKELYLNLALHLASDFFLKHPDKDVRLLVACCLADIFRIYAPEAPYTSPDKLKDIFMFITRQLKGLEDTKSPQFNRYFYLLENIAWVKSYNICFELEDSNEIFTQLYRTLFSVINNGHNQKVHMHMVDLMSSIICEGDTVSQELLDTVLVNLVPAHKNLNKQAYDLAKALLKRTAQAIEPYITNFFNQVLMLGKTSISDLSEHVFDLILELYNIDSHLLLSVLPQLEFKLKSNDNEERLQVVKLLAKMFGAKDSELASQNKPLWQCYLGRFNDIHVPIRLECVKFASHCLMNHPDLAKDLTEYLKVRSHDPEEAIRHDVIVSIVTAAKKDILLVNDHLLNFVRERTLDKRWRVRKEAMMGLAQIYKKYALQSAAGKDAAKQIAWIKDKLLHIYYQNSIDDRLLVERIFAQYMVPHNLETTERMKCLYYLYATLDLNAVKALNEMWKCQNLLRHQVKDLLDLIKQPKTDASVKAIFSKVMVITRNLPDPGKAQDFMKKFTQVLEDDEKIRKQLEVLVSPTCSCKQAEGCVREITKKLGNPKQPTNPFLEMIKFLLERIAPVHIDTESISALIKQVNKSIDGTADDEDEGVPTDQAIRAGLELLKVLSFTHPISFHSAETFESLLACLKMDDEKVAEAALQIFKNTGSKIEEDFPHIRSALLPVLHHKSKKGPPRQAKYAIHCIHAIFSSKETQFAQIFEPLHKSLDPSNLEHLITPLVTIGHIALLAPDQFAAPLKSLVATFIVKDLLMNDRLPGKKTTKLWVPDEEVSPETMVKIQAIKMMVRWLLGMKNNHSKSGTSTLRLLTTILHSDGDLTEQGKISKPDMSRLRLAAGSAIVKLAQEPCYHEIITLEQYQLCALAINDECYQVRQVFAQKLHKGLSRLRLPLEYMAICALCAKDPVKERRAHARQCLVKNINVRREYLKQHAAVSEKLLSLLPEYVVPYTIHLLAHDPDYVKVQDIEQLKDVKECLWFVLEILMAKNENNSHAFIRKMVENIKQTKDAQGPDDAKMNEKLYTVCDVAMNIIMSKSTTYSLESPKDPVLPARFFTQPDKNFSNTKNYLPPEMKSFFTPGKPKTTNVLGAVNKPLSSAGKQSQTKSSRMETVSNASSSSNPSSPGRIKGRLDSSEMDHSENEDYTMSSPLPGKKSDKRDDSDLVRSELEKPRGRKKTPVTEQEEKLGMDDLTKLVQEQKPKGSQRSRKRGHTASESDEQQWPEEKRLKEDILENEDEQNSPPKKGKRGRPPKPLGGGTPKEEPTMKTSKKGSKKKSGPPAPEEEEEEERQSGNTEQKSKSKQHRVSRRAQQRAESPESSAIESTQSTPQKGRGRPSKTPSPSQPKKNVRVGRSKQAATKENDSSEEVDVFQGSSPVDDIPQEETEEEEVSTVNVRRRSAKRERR
UniProt Q15365, whole entry, looked up: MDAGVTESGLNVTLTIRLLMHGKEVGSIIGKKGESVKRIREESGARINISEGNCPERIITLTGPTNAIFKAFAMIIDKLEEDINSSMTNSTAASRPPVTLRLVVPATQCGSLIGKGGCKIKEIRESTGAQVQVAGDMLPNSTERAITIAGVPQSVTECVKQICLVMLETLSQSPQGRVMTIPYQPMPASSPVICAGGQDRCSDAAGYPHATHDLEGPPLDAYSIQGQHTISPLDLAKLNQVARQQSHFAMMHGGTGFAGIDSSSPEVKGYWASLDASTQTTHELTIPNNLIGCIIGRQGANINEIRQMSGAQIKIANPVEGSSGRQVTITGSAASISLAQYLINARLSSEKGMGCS
UniProt P09874, whole entry, looked up: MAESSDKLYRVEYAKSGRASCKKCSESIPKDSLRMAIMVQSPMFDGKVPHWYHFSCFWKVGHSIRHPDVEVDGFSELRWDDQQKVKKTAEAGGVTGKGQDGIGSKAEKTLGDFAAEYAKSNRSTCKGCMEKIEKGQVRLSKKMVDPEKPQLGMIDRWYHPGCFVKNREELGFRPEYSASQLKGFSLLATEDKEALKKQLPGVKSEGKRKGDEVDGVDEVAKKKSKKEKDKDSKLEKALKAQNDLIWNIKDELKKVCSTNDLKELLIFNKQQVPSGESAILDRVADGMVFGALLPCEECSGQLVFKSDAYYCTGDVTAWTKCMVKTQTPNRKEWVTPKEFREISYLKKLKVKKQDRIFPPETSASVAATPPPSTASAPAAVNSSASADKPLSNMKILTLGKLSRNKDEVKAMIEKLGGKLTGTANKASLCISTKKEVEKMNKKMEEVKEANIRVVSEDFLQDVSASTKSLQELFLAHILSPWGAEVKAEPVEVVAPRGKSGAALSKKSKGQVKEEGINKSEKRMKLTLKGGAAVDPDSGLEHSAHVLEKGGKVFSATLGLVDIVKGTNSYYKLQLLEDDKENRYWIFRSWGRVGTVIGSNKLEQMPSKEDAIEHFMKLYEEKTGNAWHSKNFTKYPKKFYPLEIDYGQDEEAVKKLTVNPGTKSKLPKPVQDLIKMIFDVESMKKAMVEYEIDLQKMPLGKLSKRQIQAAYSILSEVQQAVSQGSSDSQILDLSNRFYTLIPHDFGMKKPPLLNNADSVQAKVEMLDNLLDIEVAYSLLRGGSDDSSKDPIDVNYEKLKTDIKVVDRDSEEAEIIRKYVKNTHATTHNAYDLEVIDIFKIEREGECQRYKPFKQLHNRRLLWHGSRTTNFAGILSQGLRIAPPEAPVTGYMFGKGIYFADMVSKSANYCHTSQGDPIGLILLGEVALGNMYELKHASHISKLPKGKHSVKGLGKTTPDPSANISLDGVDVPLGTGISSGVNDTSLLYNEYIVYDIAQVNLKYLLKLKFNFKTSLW
UniProt Q9NR12, whole entry, looked up: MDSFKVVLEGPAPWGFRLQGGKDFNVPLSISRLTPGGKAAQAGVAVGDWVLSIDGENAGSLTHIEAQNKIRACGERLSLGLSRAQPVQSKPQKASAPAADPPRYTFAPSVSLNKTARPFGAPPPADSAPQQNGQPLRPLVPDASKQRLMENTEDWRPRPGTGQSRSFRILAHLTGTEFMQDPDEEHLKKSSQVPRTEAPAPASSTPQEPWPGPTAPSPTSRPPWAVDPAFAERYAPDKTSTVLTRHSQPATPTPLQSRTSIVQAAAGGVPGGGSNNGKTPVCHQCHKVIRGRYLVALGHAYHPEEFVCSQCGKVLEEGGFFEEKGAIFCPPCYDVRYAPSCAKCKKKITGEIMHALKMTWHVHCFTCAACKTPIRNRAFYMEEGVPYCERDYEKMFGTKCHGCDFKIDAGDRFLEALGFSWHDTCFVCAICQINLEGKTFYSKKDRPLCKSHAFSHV
UniProt P11177, whole entry, looked up: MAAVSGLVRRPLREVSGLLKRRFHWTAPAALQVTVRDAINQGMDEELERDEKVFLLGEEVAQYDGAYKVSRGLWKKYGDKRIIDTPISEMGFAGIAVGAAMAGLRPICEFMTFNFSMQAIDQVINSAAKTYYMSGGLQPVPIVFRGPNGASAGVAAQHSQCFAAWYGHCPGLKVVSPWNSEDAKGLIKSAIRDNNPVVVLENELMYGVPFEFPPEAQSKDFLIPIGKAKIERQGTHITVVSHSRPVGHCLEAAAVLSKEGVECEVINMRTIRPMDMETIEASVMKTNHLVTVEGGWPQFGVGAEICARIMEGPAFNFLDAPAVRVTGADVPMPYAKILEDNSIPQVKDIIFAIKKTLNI
UniProt Q86SE9: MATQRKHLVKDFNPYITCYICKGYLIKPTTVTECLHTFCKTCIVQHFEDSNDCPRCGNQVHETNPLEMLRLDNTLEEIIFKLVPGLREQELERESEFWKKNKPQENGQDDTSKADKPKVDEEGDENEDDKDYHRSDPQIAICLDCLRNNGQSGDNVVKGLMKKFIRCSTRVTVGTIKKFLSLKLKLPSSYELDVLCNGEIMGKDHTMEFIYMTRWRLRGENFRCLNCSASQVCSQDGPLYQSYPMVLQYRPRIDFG
UniProt Q9BUH6, whole entry, looked up: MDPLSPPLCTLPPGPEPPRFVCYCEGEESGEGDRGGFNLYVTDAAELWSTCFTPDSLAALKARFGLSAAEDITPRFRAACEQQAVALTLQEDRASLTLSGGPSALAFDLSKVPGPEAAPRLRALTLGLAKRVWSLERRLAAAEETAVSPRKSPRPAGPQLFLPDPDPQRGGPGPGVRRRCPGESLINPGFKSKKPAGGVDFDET
UniProt Q99447: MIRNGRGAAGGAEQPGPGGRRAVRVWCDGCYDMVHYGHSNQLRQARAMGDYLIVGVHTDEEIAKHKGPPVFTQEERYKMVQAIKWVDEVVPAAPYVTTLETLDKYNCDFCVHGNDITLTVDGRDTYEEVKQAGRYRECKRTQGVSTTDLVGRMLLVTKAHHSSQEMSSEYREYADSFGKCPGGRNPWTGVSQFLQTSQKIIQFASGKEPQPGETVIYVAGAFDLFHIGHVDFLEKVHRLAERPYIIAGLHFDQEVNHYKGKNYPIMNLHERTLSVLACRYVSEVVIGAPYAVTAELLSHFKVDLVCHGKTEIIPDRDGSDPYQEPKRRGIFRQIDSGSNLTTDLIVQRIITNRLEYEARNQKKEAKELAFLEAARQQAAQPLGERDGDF

Compound: CC1Cc2ccccc2N1C(=O)C1CCCN(C1)C(=O)CCl (mixture of isomers) [TRIM25 ligand 11 (diastereomer mixture)]
Assay: probe-labelled cysteine peptide fold change vs DMSO (competition) (log2 fold change); higher = less target engagement (more negative = stronger competition)
Conditions: 50 µM; THP-1; incubation time: 4 h
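Also: competitive chemoproteomic profiling in live THP-1 cells with an iodoacetamide desthiobiotin (IA-DTB) probe, comparing probe-labelled peptide intensities in compound-treated cells against DMSO-treated controls.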

Row | Target | probe-labelled cysteine peptide fold change
1 | PCYT1A_P49585_113_NLFPNTYLIVGVCSDELTHNFK (UniProt P49585) | -0.0946
2 | PDXDC1_Q6P996_481_GEDVDQLVACIESK (UniProt Q6P996) | -0.121
3 | PCYT1A_P49585_139_GFTVMNENERYDAVQHCR (UniProt P49585) | -0.217
4 | PARVG_Q9HBI0_314_VLYGLFCK (UniProt Q9HBI0) | 0.146
5 | PCM1_Q15154_876_SDGSENLCTPQQSR (UniProt Q15154) | -0.397
6 | PARP4_Q9UKK3_45_FSFSLNPQCTHIILDNADVLSQYQLNSIQK (UniProt Q9UKK3) | -0.13
7 | PDPR_Q8NCN5_85_FCAGILSTAR (UniProt Q8NCN5) | -0.0716
8 | PDS5B_Q9NTI5_571_QLEVLVSPTCSCK (UniProt Q9NTI5) | -0.0172
9 | PDLIM4_P50479_258_CGHGIVGTIVK (UniProt P50479) | -0.128
10 | PDIA3_P30101_57+60_ISDTGSAGLMLVEFFAPWCGHCK (UniProt P30101) | -0.179
11 | PCBP1_Q15365_158_AITIAGVPQSVTECVK (UniProt Q15365) | -0.0471
12 | PARP1_P09874_298_VADGMVFGALLPCEECSGQLVFK (UniProt P09874) | 0.156
13 | PDLIM7_Q9NR12_388_AFYMEEGVPYCERDYEK (UniProt Q9NR12) | -0.194
14 | PDHB_P11177_249_PVGHCLEAAAVLSK (UniProt P11177) | 0.128
15 | PCGF5_Q86SE9_42+53_TCIVQHFEDSNDCPR (UniProt Q86SE9) | -0.0814
16 | PAXX_Q9BUH6_180_CPGESLINPGFK (UniProt Q9BUH6) | -0.517
17 | PDLIM2_Q96JY6_310_YRHPGCYTCADCGLNLK (UniProt Q96JY6) | -0.00377
18 | PARP1_P09874_845_IEREGECQR (UniProt P09874) | 0.129
19 | PDHA1_P08559_261_RGDFIPGLRVDGMDILCVR (UniProt P08559) | -0.188
20 | PCYT2_Q99447_110_YNCDFCVHGNDITLTVDGR (UniProt Q99447) | 0.192

Some of the entries so far, with tabs:
Row	Target	probe-labelled cysteine peptide fold change
12	PARP1_P09874_298_VADGMVFGALLPCEECSGQLVFK (UniProt P09874)	0.156
13	PDLIM7_Q9NR12_388_AFYMEEGVPYCERDYEK (UniProt Q9NR12)	-0.194
14	PDHB_P11177_249_PVGHCLEAAAVLSK (UniProt P11177)	0.128
15	PCGF5_Q86SE9_42+53_TCIVQHFEDSNDCPR (UniProt Q86SE9)	-0.0814
